# PubChem BioAssay AID1259405 | NCATS | 2018
# Screen: 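Mouse-designed siRNAs used to find CHO productivity engineering targets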 (primary screen)
# Cells: Chinese hamster CHO-K1 ovary cells with stable secreted eGFP expression
# Knock-down reagent: single siRNA against mouse genes, 0.8 pmol siRNA per well (2 µl of 400 nM stock)
# Duration: 3 days
# Detection: 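Per-well intracellular GFP measured by laser scanning cytometry, plus viability from ATP luminescence, each relative to plate median of non-targeting control wells, in %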
# Scale: GFP, % of control: higher = more GFP per well, higher productivity; viability (ATP), % of control: higher = more viable cells (more ATP)
# Call rule: 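a knock-down is called active if GFP reaches 120% or more of non-targeting control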
# Shown is an unselected part of about 50,000 reagents. About 4,000 of them (8%) were called active. 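Mouse siRNA library applied to hamster cells; one well for each siRNA.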 The numbers tell different reagents against one gene apart.
target,reagent,"GFP, % of control","viability (ATP), % of control",Outcome
Pvalb (parvalbumin),1,66,71.9,inactive
Pvalb (parvalbumin),2,73.2,71.1,inactive
"Spink8 (serine peptidase inhibitor, Kazal type 8)",1,59.1,81.4,inactive
"Spink8 (serine peptidase inhibitor, Kazal type 8)",2,86.6,46.7,inactive
"Spink8 (serine peptidase inhibitor, Kazal type 8)",3,124,129,active
Rps6ka5 (ribosomal protein S6 kinase A5),1,135,93.4,active
Rps6ka5 (ribosomal protein S6 kinase A5),2,118,110,inactive
Rps6ka5 (ribosomal protein S6 kinase A5),3,113,84.6,inactive
Prrc2b (proline-rich coiled-coil 2B),1,82.9,59.4,inactive
Prrc2b (proline-rich coiled-coil 2B),2,78.3,84.9,inactive
Prrc2b (proline-rich coiled-coil 2B),3,88.2,71.4,inactive
Ascl2 (achaete-scute family bHLH transcription factor 2),1,66.1,73.5,inactive
Ascl2 (achaete-scute family bHLH transcription factor 2),2,73.2,71.9,inactive
"Adra2c (adrenergic receptor, alpha 2c)",1,84.1,64.9,inactive
"Adra2c (adrenergic receptor, alpha 2c)",2,85,78.2,inactive
"Adra2c (adrenergic receptor, alpha 2c)",3,62.8,51,inactive
Chst9 (carbohydrate sulfotransferase 9),1,90.8,94.5,inactive
Chst9 (carbohydrate sulfotransferase 9),2,117,131,inactive
Chst9 (carbohydrate sulfotransferase 9),3,110,125,inactive
Minar2 (membrane integral NOTCH2 associated receptor 2),1,85.5,78.2,inactive
Minar2 (membrane integral NOTCH2 associated receptor 2),2,43.8,68.6,inactive
Minar2 (membrane integral NOTCH2 associated receptor 2),3,57.5,74,inactive
Cntd1 (cyclin N-terminal domain containing 1),1,86.5,95.3,inactive
Cntd1 (cyclin N-terminal domain containing 1),2,80.9,51.6,inactive
Cntd1 (cyclin N-terminal domain containing 1),3,78.2,81.1,inactive
Gstp3 (glutathione S-transferase pi 3),1,43.6,64.5,inactive
Gstp3 (glutathione S-transferase pi 3),2,143,101,active
Gstp3 (glutathione S-transferase pi 3),3,34.4,29.6,inactive
Mospd3 (motile sperm domain containing 3),1,37.2,32.5,inactive
Mospd3 (motile sperm domain containing 3),2,74.3,56.5,inactive
Mospd3 (motile sperm domain containing 3),3,45.8,32.7,inactive
Atg9b (autophagy related 9B),1,76.7,81.8,inactive
Atg9b (autophagy related 9B),2,90.4,77.4,inactive
Atg9b (autophagy related 9B),3,118,80.7,inactive
Dctn1 (dynactin 1),1,99.2,107,inactive
Dctn1 (dynactin 1),2,90.7,110,inactive
Drc3 (dynein regulatory complex subunit 3),1,68.8,81.5,inactive
Drc3 (dynein regulatory complex subunit 3),2,73.8,55.6,inactive
Drc3 (dynein regulatory complex subunit 3),3,102,99.4,inactive
Dync1li1 (dynein cytoplasmic 1 light intermediate chain 1),1,87.8,98.6,inactive
Dync1li1 (dynein cytoplasmic 1 light intermediate chain 1),2,79.7,104,inactive
Tmem270 (transmembrane protein 270),1,103,86.6,inactive
Tmem270 (transmembrane protein 270),2,87.9,52.2,inactive
Tmem270 (transmembrane protein 270),3,63.1,55.6,inactive
Coq9 (coenzyme Q9),1,61.7,83.9,inactive
Coq9 (coenzyme Q9),2,63.6,87,inactive
"Defa-rs2 (defensin, alpha, related sequence 2)",1,46,71.1,inactive
"Defa-rs2 (defensin, alpha, related sequence 2)",2,84.8,77.2,inactive
"Defa-rs2 (defensin, alpha, related sequence 2)",3,133,78.4,active
Enpp4 (ectonucleotide pyrophosphatase/phosphodiesterase 4),1,49.1,76.8,inactive
Enpp4 (ectonucleotide pyrophosphatase/phosphodiesterase 4),2,75.8,76.7,inactive
Enpp4 (ectonucleotide pyrophosphatase/phosphodiesterase 4),3,77.5,75.2,inactive
Otop1 (otopetrin 1),1,89.5,68.8,inactive
Otop1 (otopetrin 1),2,77.5,73.2,inactive
Otop1 (otopetrin 1),3,51.4,42.7,inactive
Ercc1,1,74.6,85.1,inactive
Ercc1,2,56.1,71.7,inactive
Ercc1,3,91.4,79.7,inactive
Tbcd (tubulin-specific chaperone d),1,43.5,78.3,inactive
Tbcd (tubulin-specific chaperone d),2,50.8,55,inactive
Tbcd (tubulin-specific chaperone d),3,76.5,72.7,inactive
Ecscr,1,55.3,51.7,inactive
Ecscr,2,78,64.3,inactive
Ecscr,3,77.2,68.3,inactive
"Prdm1 (PR domain containing 1, with ZNF domain)",1,92.4,93.1,inactive
"Prdm1 (PR domain containing 1, with ZNF domain)",2,142,78.2,active
"Prdm1 (PR domain containing 1, with ZNF domain)",3,111,93.3,inactive
"Ing5 (inhibitor of growth family, member 5)",1,92.9,74,inactive
"Ing5 (inhibitor of growth family, member 5)",2,210,178,active
Ttr (transthyretin),1,163,38.4,active
Ttr (transthyretin),2,57.8,44.1,inactive
Ttr (transthyretin),3,73.9,123,inactive
Acot2 (acyl-CoA thioesterase 2),1,70.6,115,inactive
Acot2 (acyl-CoA thioesterase 2),2,123,82.3,active
Prss45 (serine protease 45),1,117,105,inactive
Prss45 (serine protease 45),2,105,60.5,inactive
Prss45 (serine protease 45),3,52.7,57.6,inactive
Caprin1 (cell cycle associated protein 1),1,92.2,85.7,inactive
Caprin1 (cell cycle associated protein 1),2,67.9,75.8,inactive
Caprin1 (cell cycle associated protein 1),3,80.4,96.9,inactive
Kcne2,1,81.5,78.5,inactive
Kcne2,2,50,66.1,inactive
Kcne2,3,99.7,92.3,inactive
Tcam1 (testicular cell adhesion molecule 1),1,140,73.4,active
Tcam1 (testicular cell adhesion molecule 1),2,49.1,75.5,inactive
Tcam1 (testicular cell adhesion molecule 1),3,58.5,69.7,inactive
Crct1 (cysteine-rich C-terminal 1),1,75.9,56.5,inactive
Crct1 (cysteine-rich C-terminal 1),2,109,85.6,inactive
Crct1 (cysteine-rich C-terminal 1),3,69.9,72.9,inactive
"Man1b1 (mannosidase, alpha, class 1B, member 1)",1,57.3,97.6,inactive
"Man1b1 (mannosidase, alpha, class 1B, member 1)",2,88,85,inactive
"Man1b1 (mannosidase, alpha, class 1B, member 1)",3,126,80.8,active
Eno4 (enolase 4),1,56.5,42.7,inactive
Eno4 (enolase 4),2,85.9,79.8,inactive
Eno4 (enolase 4),3,82.1,70.3,inactive
Baz1a (bromodomain adjacent to zinc finger domain 1A),1,90.5,66.7,inactive
Baz1a (bromodomain adjacent to zinc finger domain 1A),2,61.7,88.4,inactive
Baz1a (bromodomain adjacent to zinc finger domain 1A),3,68.7,79.3,inactive
Rnf111 (ring finger protein 111),1,77.7,42.8,inactive
Rnf111 (ring finger protein 111),2,13.2,23.6,inactive
Hibch (3-hydroxyisobutyryl-Coenzyme A hydrolase),1,129,138,active
Hibch (3-hydroxyisobutyryl-Coenzyme A hydrolase),2,60.1,77.4,inactive
Hibch (3-hydroxyisobutyryl-Coenzyme A hydrolase),3,93.2,61.6,inactive
Gabra5 (gamma-aminobutyric acid type A receptor subunit alpha 5),1,61.3,84.1,inactive
Gabra5 (gamma-aminobutyric acid type A receptor subunit alpha 5),2,55.6,60.7,inactive
Gabra5 (gamma-aminobutyric acid type A receptor subunit alpha 5),3,68.2,69.1,inactive
Adss1 (adenylosuccinate synthase 1),1,40.9,64.2,inactive
Adss1 (adenylosuccinate synthase 1),2,74.1,90.5,inactive
Adss1 (adenylosuccinate synthase 1),3,101,85.1,inactive

Records listed so far whose gene name begins with R or r:
target,reagent,"GFP, % of control","viability (ATP), % of control",Outcome
Rps6ka5 (ribosomal protein S6 kinase A5),1,135,93.4,active
Rps6ka5 (ribosomal protein S6 kinase A5),2,118,110,inactive
Rps6ka5 (ribosomal protein S6 kinase A5),3,113,84.6,inactive
Rnf111 (ring finger protein 111),1,77.7,42.8,inactive
Rnf111 (ring finger protein 111),2,13.2,23.6,inactive
